Assay results taken from doi:10.1101/2020.03.06.980961.
Construct, isoform or probe ends are uncertain for at least one entry. For part of these data: Negatives hold for the conditions tested. At least one verdict was read from the data and is not stated in words by the source. Protein sequences can lack the tags named with them.

Assays:
Assay in all cases: fluorescence anisotropy
[1] = biological target: T1, Mtf1-WT (Saccharomyces cerevisiae) (UniProt P14908); conditions: Buffer A
T1 sequence (looked up, limits assumed): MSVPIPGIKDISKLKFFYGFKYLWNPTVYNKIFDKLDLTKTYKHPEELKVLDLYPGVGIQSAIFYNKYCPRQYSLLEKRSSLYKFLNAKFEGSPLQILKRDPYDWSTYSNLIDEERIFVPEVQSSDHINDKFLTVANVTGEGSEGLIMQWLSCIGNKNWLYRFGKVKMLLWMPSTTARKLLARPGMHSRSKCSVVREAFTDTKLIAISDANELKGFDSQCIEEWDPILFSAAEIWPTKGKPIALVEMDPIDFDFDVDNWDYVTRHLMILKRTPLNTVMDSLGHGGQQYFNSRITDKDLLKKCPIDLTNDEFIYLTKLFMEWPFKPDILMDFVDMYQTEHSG

[2] = biological target: T2, Mtf1-Δ20 (Saccharomyces cerevisiae) (UniProt P14908); conditions: Buffer A, range given for all substrates
T2 sequence (looked up, limits assumed): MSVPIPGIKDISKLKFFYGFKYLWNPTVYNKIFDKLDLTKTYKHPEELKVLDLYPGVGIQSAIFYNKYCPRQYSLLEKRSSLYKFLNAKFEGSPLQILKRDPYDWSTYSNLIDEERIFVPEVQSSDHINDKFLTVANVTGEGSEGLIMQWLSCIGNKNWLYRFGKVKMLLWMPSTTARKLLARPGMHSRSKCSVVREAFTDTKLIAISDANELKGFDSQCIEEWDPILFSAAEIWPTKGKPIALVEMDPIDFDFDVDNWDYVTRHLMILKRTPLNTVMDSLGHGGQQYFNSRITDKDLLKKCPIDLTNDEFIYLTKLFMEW

TFB2M-Δ13 (human) = biological target: T3, TFB2M-Δ13 (human) (UniProt Q9H5Q4); conditions: Buffer B, tighter than WT, value only in figure
T3 sequence (looked up, limits assumed): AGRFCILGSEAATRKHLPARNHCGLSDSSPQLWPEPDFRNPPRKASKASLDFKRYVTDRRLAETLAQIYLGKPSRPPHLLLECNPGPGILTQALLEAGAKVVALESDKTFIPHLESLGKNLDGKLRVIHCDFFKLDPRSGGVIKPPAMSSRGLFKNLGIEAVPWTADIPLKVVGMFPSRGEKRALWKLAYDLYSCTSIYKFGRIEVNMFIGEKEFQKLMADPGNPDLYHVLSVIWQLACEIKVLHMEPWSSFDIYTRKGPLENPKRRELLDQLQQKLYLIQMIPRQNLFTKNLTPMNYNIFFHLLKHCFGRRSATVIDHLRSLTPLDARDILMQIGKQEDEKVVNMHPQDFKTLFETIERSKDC

TTTTTTTTTTTT [dT12]: no binding [1]; binds [2]; binds (TFB2M-Δ13 (human)).
